Assay [1] has as its system BDF1 mice, L1210 leukemia sc, survival T/C. The assay can be described thus: NCI In Vivo Anticancer Drug Screen. Data for tumor model L1210 Leukemia (subcutaneous) in B6D2F1 (BDF1) mice. The following applies: T/C endpoint: median survival time, higher T/C = longer survival. In a few lines: (§1)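 Expressed as T/C: measurement in compound-treated, tumor-bearing mice relative to vehicle-treated control mice, based on survival or tumor size.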

In assay [2] the test system is BDF1 mice, L1210 leukemia sc. The description is as above. The following applies: T/C endpoint: median survival time, higher T/C = longer survival. The method in brief:
as §1

Setting [3] is: dose: 108.0 mg/kg/injection, schedule: Q01DX Z (sc), vehicle: carboxymethylcellulose (CMC).

The results in this text go back to PubChem BioAssay AID250 (DTP/NCI, 2004).

The list does not hold the whole screen: it is rich in T/C values a quarter to a half above the control, in often repeated tests (any T/C) and in doses without a T/C. Further doses and runs are listed elsewhere. T/C gives the treated animals as a percentage of the vehicle group. Some doses have a count of surviving animals in place of a T/C: the source files T/C as zero there, which appears to mark a toxic dose or a test without result, not a measured value. Some survivor counts are full or nearly so, which does not show that the dose was tolerated: the source hardly ever lists a survival T/C far under the control, and the zero likely stands for such cases as well. For part of these data: Counts of survivors are from the toxicity check (mostly the fifth day) where no day follows; animals may have died later. Schedules are NCI's codes, read here as Q, the interval in days (D) or hours (H), X, the number of doses. Some schedules carry Z or #; the key to these is not given. For part of these data: For survival time, the PubChem record calls one and a half times the control and up active, and a quarter to a half above the control has no call in these data; cut-offs in other NCI protocols can differ. Some T/C values are followed by the survivors on the day toxicity was checked, most often the fifth; without a count, all were alive then.

As for `Nc1ncn(C2OC(CO)C(O)C2O)c(=O)n1` (centres undefined), the survivor count in assay [1] (dose: 12.0 mg/kg/injection, schedule: Q01DX009 (ip), vehicle: saline) is reported as 7 of 8; in assay [1] (dose: 12.0 mg/kg/injection, schedule: Q01DX009 (sc), vehicle: saline), 8 of 8; in assay [1] (dose: 96.0 mg/kg/injection, schedule: Q01DX001 (ip), vehicle: saline) it was 4 of 8; in assay [1] (dose: 96.0 mg/kg/injection, schedule: Q01DX001 (sc), vehicle: saline), 4 of 8. The T/C was 138 % of control in assay [2] (dose: 2.0 mg/kg/injection, schedule: Q03HX024 (sc), vehicle: saline, evaluated on day 7); 138 % of control in assay [2] (dose: 2.0 mg/kg/injection, schedule: Q03HX024 (sc), vehicle: saline, evaluated on day 26); 133 % of control in assay [2] (dose: 3.0 mg/kg/injection, schedule: Q01DX009 (ip), vehicle: saline); 144 % of control in assay [2] (dose: 3.0 mg/kg/injection, schedule: Q04DX003 (ip), vehicle: saline); 140 % of control in assay [2] (dose: 4.0 mg/kg/injection, schedule: Q01DX009 (sc), vehicle: saline, evaluated on day 7); 140 % of control in assay [2] (dose: 4.0 mg/kg/injection, schedule: Q01DX009 (sc), vehicle: saline, evaluated on day 19). Moreover, the T/C in assay [2] (dose: 4.0 mg/kg/injection, schedule: Q01DX009 (sc), vehicle: saline, evaluated on day 30) is 144 % of control; in assay [2] (dose: 4.0 mg/kg/injection, schedule: Q05DX009 (sc), vehicle: saline, evaluated on day 7), 134 % of control; in assay [2] (dose: 4.0 mg/kg/injection, schedule: Q05DX009 (sc), vehicle: saline, evaluated on day 23), 133 % of control; in assay [2] (dose: 6.0 mg/kg/injection, schedule: Q01DX001 (ip), vehicle: saline) it was 133 % of control; in assay [2] (dose: 6.0 mg/kg/injection, schedule: Q01DX001 (sc), vehicle: saline), 133 % of control; in assay [2] (dose: 8.0 mg/kg/injection, schedule: Q01DX009 (sc), vehicle: saline, evaluated on day 7) it was 133 % of control. Besides, the T/C in assay [2] (dose: 8.0 mg/kg/injection, schedule: Q01DX009 (sc), vehicle: saline, evaluated on day 30) is 133 % of control; in assay [2] (dose: 8.0 mg/kg/injection, schedule: Q05DX009 (sc), vehicle: saline, evaluated on day 7), 133 % of control; in assay [2] (dose: 8.0 mg/kg/injection, schedule: Q05DX009 (sc), vehicle: saline, evaluated on day 23), 133 % of control; in assay [2] (dose: 12.0 mg/kg/injection, schedule: Q01DX001 (ip), vehicle: saline), 144 % of control; in assay [2] (dose: 24.0 mg/kg/injection, schedule: Q04DX003 (ip), vehicle: saline), 138 % of control; in assay [2] (dose: 32.0 mg/kg/injection, schedule: Q01DX001 (sc), vehicle: saline), 130 % of control. Moreover, the T/C was 130 % of control in assay [2] (dose: 32.0 mg/kg/injection, schedule: Q04DX003 (sc), vehicle: saline) and 125 % of control in assay [2] (dose: 64.0 mg/kg/injection, schedule: Q01DX001 (sc), vehicle: saline).

As for `CCNc1nncs1`, the survivor count in assay [1] (dose: 39.0 mg/kg/injection, schedule: Q01DX Z (sc), vehicle: other) is recorded as 3 of 10. Moreover, the T/C in assay [2] (dose: 108.0 mg/kg/injection, schedule: Q01DX Z (sc), vehicle: other) is 135 % of control [8 of 10 alive]; in assay [2] (dose: 500.0 mg/kg/injection, schedule: Q01DX Z (sc), vehicle: other) it was 130 % of control [9 of 10 alive].

As to `CC1CC(C)(O)CC(C(O)CC2CC(=O)NC(=O)C2)C1=O` (centres undefined), the survivor count is recorded as 6 of 10 in assay [1] (dose: 5.18 mg/kg/injection, schedule: Q01DX Z (sc), vehicle: saline); 6 of 10 in assay [1] (dose: 8.64 mg/kg/injection, schedule: Q01DX Z (sc), vehicle: saline); 0 of 10 in assay [1] (dose: 23.0 mg/kg/injection, schedule: Q01DX001 (sc), vehicle: saline); 2 of 10 in assay [1] (dose: 23.0 mg/kg/injection, schedule: Q## X Z (sc), vehicle: saline); 0 of 10 in assay [1] (dose: 39.0 mg/kg/injection, schedule: Q01DX001 (sc), vehicle: saline); 1 of 10 in assay [1] (dose: 39.0 mg/kg/injection, schedule: Q## X Z (sc), vehicle: saline). Besides, the survivor count in assay [1] (dose: 65.0 mg/kg/injection, schedule: Q01DX001 (sc), vehicle: saline) is on record as 0 of 10. The T/C was 140 % of control in assay [2] (dose: 0.23 mg/kg/injection, schedule: Q01DX Z (sc), vehicle: saline); 145 % of control in assay [2] (dose: 0.39 mg/kg/injection, schedule: Q01DX Z (sc), vehicle: saline); 130 % of control in assay [2] (dose: 0.65 mg/kg/injection, schedule: Q01DX Z (sc), vehicle: saline); 125 % of control in assay [2] (dose: 3.0 mg/kg/injection, schedule: Q02DX Z (sc), vehicle: saline); 125 % of control in assay [2] (dose: 5.0 mg/kg/injection, schedule: Q02DX Z (sc), vehicle: saline); 130 % of control in assay [2] (dose: 8.4 mg/kg/injection, schedule: Q01DX001 (sc), vehicle: saline). Further, the T/C in assay [2] (dose: 14.0 mg/kg/injection, schedule: Q01DX001 (sc), vehicle: saline) is 125 % of control [7 of 10 alive].

Consider `Nc1nc(N)c2cc(CNc3ccc(C(=O)NC(CC(=O)O)C(=O)O)cc3)ccc2n1` (centres undefined), for which the survivor count in assay [1] (dose: 100.0 mg/kg/injection, schedule: Q01DX001 (sc), vehicle: saline) is 5 of 8. For the same molecule, the T/C in assay [2] (dose: 25.0 mg/kg/injection, schedule: Q01DX001 (sc), vehicle: saline) is 138 % of control.

In the case of `CCC(=O)OCC1OC(n2cnc3c(=S)nc(N)[nH]c32)C(OC(=O)CC)C1OC(=O)CC` (centres undefined), the survivor count in assay [1] (dose: 39.0 mg/kg/injection, schedule: Q01DX Z (sc), vehicle: carboxymethylcellulose (CMC)) was 5 of 8. Further, the T/C in assay [2] (dose: 8.4 mg/kg/injection, schedule: Q01DX Z (sc), vehicle: carboxymethylcellulose (CMC)) is 131 % of control.

Consider `CC(CNC(=O)CCOS(C)(=O)=O)NC(=O)CCOS(C)(=O)=O` (centres undefined), for which the survivor count in assay [1] (dose: 65.0 mg/kg/injection, schedule: Q01DX Z (sc), vehicle: carboxymethylcellulose (CMC)) is on record as 3 of 10; in assay [1] (setting [3]), 3 of 10; in assay [1] (dose: 180.0 mg/kg/injection, schedule: Q01DX Z (sc), vehicle: carboxymethylcellulose (CMC)) it was 4 of 10. In addition, the T/C was 135 % of control in assay [2] (setting [3]); 137 % of control [7 of 10 alive] in assay [2] (dose: 300.0 mg/kg/injection, schedule: Q01DX Z (sc), vehicle: carboxymethylcellulose (CMC)); 137 % of control in assay [2] (dose: 500.0 mg/kg/injection, schedule: Q01DX Z (sc), vehicle: carboxymethylcellulose (CMC), evaluated on day 31); 125 % of control in assay [2] (dose: 500.0 mg/kg/injection, schedule: Q01DX Z (sc), vehicle: carboxymethylcellulose (CMC), run until all animals had died).

As to `COc1cc([C@@H]2c3cc4c(cc3[C@@H](OC3OC5COC(C)OC5C(O)C3O)[C@H]3COC(=O)[C@H]23)OCO4)cc(OC)c1O` (some centres undefined), the survivor count in assay [1] (dose: 32.0 mg/kg/injection, schedule: Q01DX009 (ip), vehicle: Klucel (hydroxypropylcellulose) (HPC)) was 8 of 8. Also, the T/C in assay [2] (dose: 4.0 mg/kg/injection, schedule: Q01DX009 (ip), vehicle: Klucel (hydroxypropylcellulose) (HPC)) is 140 % of control.
